Laboratory results as given in patent US20230272010A1, “ANTIBACTERIAL SYNTHETIC-BIOINFORMATIC NATURAL PRODUCTS AND USES THEREOF” (The Rockefeller University, priority 2020, published 2023).
Entries after “also recorded” stand apart in the source; their conditions may differ. Not every detail of the peptide structures is certain; ends, links or a residue may be inferred. Residues, ends and D or L forms follow the SMILES beside them.

Assays:
[1] = test system: Bacillus subtilis, Escherichia coli, and the ESKAPE pathogens; experiment: Antibacterial activity / MIC against screening panel of bacteria; type: cell-based; conditions: panel of Gram-positive and Gram-negative bacteria, FIG. 4A
From the text: To identify antibacterial active syn-BNPs, each fraction, containing the mass of a target syn-BNP cyclic peptide against Bacillus subtilis, Escherichia coli, and the ESKAPE pathogens, was screened. ESKAPE pathogens represented the bacteria most commonly associated with antibiotic-resistant nosocomial infections: Enterococcus faecium, Staphylococcus aureus, Klebsiella pneumoniae, Acinetobacter baumannii, Pseudomonas aeruginosa, and Enterobacter cloacae (Boucher H W et al., 2009, Clin. Infect. Dis., 48:1-12).
In the initial screen, semi-pure peptides were spotted on solid growth media seeded with each bacterium. […] Syn-BNPs scoring a “3” against any bacterium or having a combined score of 8 or higher across all pathogens were regarded as primary hits. In total, 15 fractions that reached one or both thresholds were identified. Syn-BNPs were purified by HPLC from the fractions associated with each primary hit and then re-assayed for antibacterial activity (FIG. 2B). […] These validated hits were named SyCPAs and were considered the final set of active compounds (FIG. 3).
Standard susceptibility assays were performed in the appropriate growth medium in 96-well microtiter plates to determine the MIC by the broth microdilution method in accordance to protocols recommended by Clinical and Laboratory Standards Institute (Weinstein MP, 2012, Methods for dilution antimicrobial susceptibility tests for bacteria that grow aerobically, 9th edition; Clinical and Laboratory Standards Institute, Wayne, Pa.). For polymyxin-supplemented assays, the MIC of polymyxin against a bacterium was first determined (lx MIC). The growth medium for setting up a MIC assay was then supplemented with polymyxin at ¼×MIC of each respective bacteria. The measured MICs were as follows: E. coli DH5α (0.0625 μg/mL), K. pneumoniae and P. aeruginosa (0.15 μg/mL), A. baumannii ([…]), and E. cloacae (2 μg/mL). […] These supplemented growth media was then used in a standard broth microdilution to determine the polymyxin-supplemented MIC of each antibiotic hit. All assays were done at least in duplicate (n=2).

S. aureus or B. subtilis = experiment: Membrane depolarization assay (DiSC3(5) fluorescence); type: cell-based
[2] = test system: resistant mutants of S. aureus farER deletion strain; experiment: Resistant mutants raised using the farER deletion strain; type: cell-based, Staphylococcus aureus; conditions: second round of screening
Gram-negative bacteria = experiment: Polymyxin-supplemented MIC assay; type: cell-based; conditions: polymyxin at ¼×MIC of each bacterium

| SMILES | Spectrum of activity [1] | DiSC3(5) fluorescence (membrane depolarization) (S. aureus or B. subtilis) | Concentration on which resistant mutants were able to grow [2] | Activity in combination with polymyxin (Gram-negative bacteria) |
| --- | --- | --- | --- | --- |
| CCCCCCCCCCCCCC(=O)N[C@H]1CCCNC(=O)[C@H](CC(C)C)NC(=O)[C@H](CCCNC(=N)N)NC(=O)[C@H]([C@@H](C)CC)NC(=O)[C@@H](CCCNC(=N)N)NC1=O [SyCPA 63, thurinsyn] (HELM PEPTIDE1{[CCCCCCCCCCCCCC(=O)[*:2]].[Orn].[dR].I.R.L}$PEPTIDE1,PEPTIDE1,2:R3-6:R2$$$V2.0) | active against a number of the Gram-negative bacteria that were tested; also recorded: broadest spectrum of activity; also recorded: modest antibacterial activity against most of the Gram-negative bacteria in the panel | induced an increase in DiSC3(5) fluorescence |  |  |
| CCCCCCCCCCCC1CC(=O)N[C@H](CC(C)C)C(=O)N[C@H](CN)C(=O)N[C@@H](C(C)C)C(=O)N[C@@H](CO)C(=O)N[C@@H]([C@@H](C)CC)C(=O)N1 (stereo partly drawn) [SyCPA 116, collimosyn] (HELM PEPTIDE1{I.[CCCCCCCCCCCC(CC(=O)[*:2])N[*:1]].[dL].[NC[C@@H](N[*:1])C(=O)[*:2]].V.S}$PEPTIDE1,PEPTIDE1,1:R1-6:R2$$$V2.0) | broader Gram-positive activity |  | > 128 µg/mL |  |
| CCCCCCCCCCCC1CC(=O)N[C@H](Cc2ccccc2)C(=O)N[C@H](CCCN)C(=O)N[C@@H](C(C)C)C(=O)N[C@@H]([C@@H](C)CC)C(=O)N[C@@H](Cc2ccccc2)C(=O)N[C@@H](C)C(=O)N[C@@H](Cc2ccccc2)C(=O)N1 (stereo partly drawn) [SyCPA 144, mucilasyn] (HELM PEPTIDE1{A.F.[CCCCCCCCCCCC(CC(=O)[*:2])N[*:1]].[dF].[NCCC[C@@H](N[*:1])C(=O)[*:2]].V.I.F}$PEPTIDE1,PEPTIDE1,1:R1-8:R2$$$V2.0) | only being active against A. baumannii; also recorded: native activity against A. baumannii |  |  | broad spectrum activity in the presence of polymyxin |
